Laboratory results reported in US9119881B2, “Method of synergistically enhancing the therapeutic efficacy and safety of medication through a combination therapy” (priority 2010, dated 2015).
Entries after “also recorded” stand apart in the source; their conditions may differ. At least one compound was matched to its structure with a doubt left.

Assays:
[1] = as stated in U.S. Pat. No. 6,515,132; cited from earlier work
[2] = Intraperitoneal glucose tolerance test and fasting insulin in db/db mice; type: in vivo; settings: day 42, relative to the control diet
Protocol: Obese db/db mice were fed high-fat diets containing […] mg/kg diet rosiglitazone maleate (control, Ros^lo, and Ros^hi, respectively) with and without racemic ABA (100 mg/kg diet). On day 42 mice underwent an intraperitoneal glucose tolerance test (IPGTT) (A). Areas under the curve (B) were calculated for each treatment. On day 55 fasting insulin levels were measured for mice on each diet (C). Data are represented as mean±standard error.
(§1) Mice (n=40) were fed one of six experimental diets: a control high-fat diet (control), a high-fat diet containing low dose rosiglitazone maleate (Ros^lo, 10 mg/kg diet), or a high-fat diet containing a high dose of rosiglitazone maleate (Ros^hi, 70 mg/kg diet), each with or without all racemic ABA (100 mg/kg, Sigma Aldrich, St. Louis, Mo.) for 60 days. Mice were weighed and fasting (12 h) blood glucose levels were taken weekly. Blood glucose levels were assessed with an ACCU-CHEK® Glucometer (Roche, Indianapolis, Ind.). An intraperitoneal glucose tolerance test (IPGTT, 1 g glucose/kg body weight) was conducted on fasted mice (12 h) for 0, 30, 90, and 180 minute time points and insulin levels were measured on day 54. On day 60 mice were sacrificed by CO2 narcosis with secondary thoracotomy. Abdominal WAT, inguinal subcutaneous WAT, and liver were then excised and weighed. Abdominal and subcutaneous WAT were then digested and fractionated.

[3] = system: Ab. WAT; experiment: Gene expression in abdominal WAT of db/db mice, real-time quantitative PCR; type: in vivo; settings: day 60
[4] = system: F4/80+CD11b+ macrophages; experiment: Macrophage infiltration into white adipose tissue of db/db mice, flow cytometry; type: in vivo; settings: day 60, ABA 100 mg/kg diet, Ros^lo, or both, relative to the control diet
Protocol: (§2) Obese db/db mice were fed high-fat diets containing 0, 15, or 70 mg/kg diet rosiglitazone maleate (control, Ros^lo, and Ros^hi, respectively) with and without racemic ABA (100 mg/kg diet). On day 60 the percent of F4/80+CD11b+ in the stromal vascular fractions of abdominal white adipose tissue (Ab. WAT) (A) and subcutaneous WAT (B) were assessed by flow cytometry. The percent of CD11b+CCR2+ monocytes (C) and CD4+CD25+FoxP3+ Tregs (D) in blood were assessed in whole blood. The expressions of the M1 marker CCL17 (E) and peroxisome proliferator activated receptor γ (PPAR γ) (F) in Ab. WAT were calculated as a ratio to the housekeeping gene f3-actin. Data are represented as mean±standard error.
as §1, with “Mice were weighed and fasting (12 h) blood glucose levels were taken weekly.” left out, “On day 60 mice were sacrificed by CO2 narcosis with secondary thoracotomy. Abdominal WAT, inguinal subcutaneous WAT, and liver were then excised and weighed. Abdominal and subcutaneous WAT were then digested and fractionated.” left out

[5] = Dietary ABA and rosiglitazone in obese db/db mice: body and organ weights; type: in vivo; settings: day 60, ABA 100 mg/kg diet, Ros^hi
Protocol: Twelve-fifteen week-old BKS.Cg-+Lepr^db/+Lepr^db/OlaHsd (db/db) mice were housed at the animal facilities at Virginia Polytechnic Institute and State University in a room maintained at 75° F., with a 12:12 h light-dark cycle starting from 6:00 AM. All experimental procedures were approved by the Institutional Animal Care and Use Committee of Virginia Polytechnic Institute and State University and met or exceeded requirements of the Public Health Service, National Institutes of Health and the Animal Welfare Act. […] Louis, Mo.) for 60 days. Mice were weighed and fasting (12 h) blood glucose levels were taken weekly. Blood glucose levels were assessed with an ACCU-CHEK® Glucometer (Roche, Indianapolis, Ind.). […] On day 60 mice were sacrificed by CO2 narcosis with secondary thoracotomy. Abdominal WAT, inguinal subcutaneous WAT, and liver were then excised and weighed. Abdominal and subcutaneous WAT were then digested and fractionated.

[6] = system: blood CCR2+CD11b+ monocytes and regulatory T cells (Tregs); experiment: Blood immune cell populations of db/db mice, flow cytometry; type: in vivo; settings: whole blood
Protocol: as §2
as §1, with “Mice were weighed and fasting (12 h) blood glucose levels were taken weekly.” left out, “On day 60 mice were sacrificed by CO2 narcosis with secondary thoracotomy. Abdominal WAT, inguinal subcutaneous WAT, and liver were then excised and weighed. Abdominal and subcutaneous WAT were then digested and fractionated.” left out

[7] = system: stromal vascular cells (SVCs); experiment: Gene expression in LPS-treated stromal vascular cells; type: cell-based, mice; settings: LPS 100 ng/mL, 6 h, ABA 10 μM, rosiglitazone 1 μM
Protocol: SVCs from abdominal white adipose tissue were isolated from db/db mice fed high-fat control diet for 60 days. Cells were seeded into 24-well plates at 1×10^6 cells/well and treated with LPS (100 ng/mL) with and without ABA (10 μM), Ros (1 μM), or ABA and Ros (ABA/Ros). The relative expressions of genes peroxisome proliferator activated receptor γ (PPAR γ) (A), CCL17 (B), monocyte chemoattractant protein 1 (MCP-1) (C), and mannose receptor (D) were calculated as a ratio to the housekeeping gene β-actin. Data are represented as mean±standard error.
Isolated cells from the stromal vascular fraction (SVF) of WAT from high-fat fed db/db mice were enumerated and seeded into 24-well plates at […] cells/well. […]
Total RNA was isolated from adipose tissue using the RNeasy Lipid Mini Kit (Qiagen) and from cells using the RNeasy Mini Kit (Qiagen) according to the manufacturer's instructions. […] Each gene amplicon was purified with the MiniElute PCR Purification Kit (Qiagen) and quantitated on an agarose gel by using a DNA mass ladder (Promega). […]
Complementary DNA (cDNA) concentrations for genes of interest were examined by real-time quantitative PCR using an iCycler IQ System and Sybr Green PCR master mix (Applied Biosystems, Foster City, Calif.). […] Results are presented as starting quantity of target cDNA (picograms) per microgram of total RNA.

SMILES	current minimum effective drug dose [1] [μmol/kg diet]	glucose tolerance (IPGTT) [2]	expression of the M1 marker CCL17 in Ab. WAT [3]	macrophage (ATM) infiltration into Ab. WAT [4]	Ab. WAT as percent body weight (in words) [5]	inguinal SCAT weight (in words) ([5]; listed as Ros)	blood CCR2+CD11b+ monocyte levels [6]	M1 marker CCL17 expression [7]
CCc1ccc(CCOc2ccc(CC3SC(=O)NC3=O)cc2)nc1 (stereo not shown) [Pioglitazone]	200	–	–	–	–	–	–	–
Cc1c(C)c2c(c(C)c1O)CCC(C)(COc1ccc(CC3SC(=O)NC3=O)cc1)O2 (stereo not shown) [Troglitazone]	600	–	–	–	–	–	–	–
CN(CCOc1ccc(CC2SC(=O)NC2=O)cc1)c1ccccn1 (stereo not shown) [rosiglitazone]	3	significantly improved	significantly reduced	little effect	significantly and independently reduced	little affect; also recorded: increased	significantly and dose-dependently increased	significantly reduced
